Assay results reported in patent US20220071978A1, “CANCER TREATMENT PHARMACEUTICAL COMPOSITION CONTAINING CDK INHIBITOR” (SUMITOMO DAINIPPON PHARMA CO., LTD., priority 2018, published 2022).

Key:
AILNCaP14 cell line = test: Cell proliferation suppression test (crystal violet staining); assay type: cell-based; details: 336 h, two weeks culture
Procedure: (§1) 5×10^3 cells of the LNCaP cell line, 4×10^4 cells of the AILNCaP14 cell line, and 6×10^4 cells of the AILNCaP15 cell line were each seeded on a 24-well plate to which 1 mL/well of medium was dispensed. […] After culturing each cell line for an additional two weeks, the status of cell proliferation was measured by cell staining (Bommi-Reddy et al. Proc Natl Acad Sci USA. 105: 16484-16489 (2008)) using crystal violet.
(§2) The final concentrations of alvocidib were set to be 0.125, 0.25, 0.5, and 1.0 uM.

AILNCaP15 cell line = test: as above; assay type: cell-based; details: 336 h, two weeks culture
Procedure: as §1, §2

CNC(=O)c1ccc(N2C(=S)N(c3ccc(C#N)c(C(F)(F)F)c3)C(=O)C2(C)C)cc1F [enzalutamide] was tested. Which IC50 (AILNCaP14 cell line) did it give?
The IC50 was > 5 µM.

What about the IC50 (AILNCaP15 cell line) of the same molecule?
Its IC50 is > 5 µM.
